Measurements taken from PubChem BioAssay AID743255 (National Center for Advancing Translational Sciences (NCATS), 2014).
In all, about 390,000 compounds went through this assay and about 910 (0.23%) were called active. Inconclusive results, whose numbers are uncertain, are shown with a selection of clear calls. Calls come from the whole dose curve; as a rule, active = well fitted inhibition curve with a large enough effect; inconclusive = small, poorly fitted or top-dose-only effect; inactive = no such curve, though single readings can be large or run the other way. A potency beside an inconclusive call is a rough fit, not a confirmed value.

Chains of the proteins cited; added tags and fusions are not shown. Lines headed by an entry give the natural chain unless they say otherwise; changes in a name come on top.
UniProt O94782: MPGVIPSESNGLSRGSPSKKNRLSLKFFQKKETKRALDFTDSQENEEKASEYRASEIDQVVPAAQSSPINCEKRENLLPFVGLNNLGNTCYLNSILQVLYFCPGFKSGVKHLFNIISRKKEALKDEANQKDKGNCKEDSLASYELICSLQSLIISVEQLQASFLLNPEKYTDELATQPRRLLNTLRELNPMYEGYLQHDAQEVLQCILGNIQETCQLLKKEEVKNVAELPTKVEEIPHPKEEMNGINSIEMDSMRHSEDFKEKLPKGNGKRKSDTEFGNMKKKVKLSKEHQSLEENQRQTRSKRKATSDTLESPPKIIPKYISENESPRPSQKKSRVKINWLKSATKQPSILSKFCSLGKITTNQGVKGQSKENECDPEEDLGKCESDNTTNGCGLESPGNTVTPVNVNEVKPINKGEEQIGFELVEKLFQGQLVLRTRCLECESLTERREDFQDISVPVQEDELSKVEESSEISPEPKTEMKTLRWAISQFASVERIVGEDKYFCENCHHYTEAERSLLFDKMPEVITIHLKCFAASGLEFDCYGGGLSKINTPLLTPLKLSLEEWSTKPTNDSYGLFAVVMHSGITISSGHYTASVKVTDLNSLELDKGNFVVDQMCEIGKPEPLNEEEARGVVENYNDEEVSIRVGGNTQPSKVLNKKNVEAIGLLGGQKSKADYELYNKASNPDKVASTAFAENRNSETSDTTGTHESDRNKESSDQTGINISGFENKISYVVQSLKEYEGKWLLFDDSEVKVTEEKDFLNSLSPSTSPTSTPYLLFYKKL

Molecular target: Ubiquitin carboxyl-terminal hydrolase 1 (Homo sapiens) (UniProt O94782)
Assay: Inhibitors of USP1/UAF1: Primary Screen; note: nearly all actives have a fitted effect of over 60% in size
Conditions: recombinant USP1/UAF1, Ub-Rhodamine cleavage fluorescence; activity change, negative = inhibition: at 57.1 µM (top of the series)
Procedure, shortened: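 USP1/UAF1 complex at 1 nM was preincubated with compound for 15 min at room temperature, then Ub-Rho substrate (150nM final) was added. Fluorescence (480/540 nm) was read kinetically, 6 reads every 60 seconds.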
% is set by controls: 0 for no effect and ±100 for the full control effect; potency is the fitted concentration of half-maximal effect.

Compound	Potency	activity change, negative = inhibition
CCOc1ccccc1C(=O)NC1(C(F)(F)F)C(=O)Nc2c1c(=O)[nH]c(=O)n2-c1ccccc1 (stereo unspecified)	inconclusive: 4.47 µM [inhibitor, partial curve]	
C[C@H](CO)N1C[C@H](C)[C@@H](CN(C)Cc2cccc(C(F)(F)F)c2)OCc2cnnn2CCCC1=O	inconclusive: 12.6 µM [inhibitor, partial curve, poor fit]	
Cc1ccccc1OCC(=O)Nc1ccc(C(=O)OCc2cc(=O)n3ccsc3n2)cc1	inconclusive: 7.08 µM [inhibitor, single point]	
Cc1ccc(-c2nc(NC(=O)CSc3ccc4ccccc4n3)ns2)cc1	inconclusive: 0.794 µM [inhibitor, full curve, poor fit]	
CN1C[C@@H]2C(c3ccc(C(F)(F)F)cc3)C3(c4cccnc4)CC2(C3)[C@H]1c1ccccc1 (stereo partly specified)	inconclusive: 50.1 µM [inhibitor, partial curve, poor fit]	
COCCNC(=S)N/N=C(\C)c1ccc(Cl)s1	inactive	
CCOC(=O)N1CCC(N2Cc3cccc(C(=O)Nc4ccc(CC)cc4)c3C2=O)CC1	inactive	
CCN(CC(=O)N1CCOCC1)S(=O)(=O)c1ccc(F)cc1		inconclusive: -27.5% [inhibitor]
O=C1CSC(c2nn(-c3ccccc3)cc2-c2cc3ccccc3oc2=O)N1Cc1ccco1 (stereo unspecified)	inconclusive: 22.4 µM [inhibitor, partial curve]	
CC(C)CCNC(=O)c1onc(CSc2ccc(F)cc2)c1C(=O)NCCC(C)C	inconclusive: 0.251 µM [inhibitor, full curve, poor fit]	
COC(=O)C1=CO[C@@H](O[C@@H]2O[C@H](CO)[C@@H](O)[C@H](O)[C@H]2O)C2C1C=C[C@@]2(O)CO (stereo partly specified)	inconclusive: 35.5 µM [inhibitor, partial curve, poor fit]	
Clc1ccc(-c2csc(-c3nc(-c4ccc(Br)s4)cs3)n2)cc1	inconclusive: 50.1 µM [inhibitor, partial curve, poor fit]	
COCCNC(=O)c1onc(CSc2cccc(Cl)c2)c1C(=O)O	inconclusive: 7.94 µM [inhibitor, partial curve]	
O=C(NCc1ccc(Cl)cc1)c1ccc2c(c1)NC(=O)C(CS(=O)(=O)Cc1ccc(F)cc1Cl)N2 (stereo unspecified)	inconclusive: 31.6 µM [inhibitor, partial curve, poor fit]	
COc1cc(/C=C2/C(=O)NN(c3ccc(Cl)c(Cl)c3)C2=O)cc([N+](=O)[O-])c1O	inconclusive: 28.2 µM [inhibitor, partial curve]	
COc1ccc2c(-c3cnc(N4CCOCC4)nc3)c(-c3ccc(S(C)(=O)=O)cc3)sc2c1	inconclusive: 2.24 µM [inhibitor, full curve, poor fit]	
CCOC(=O)c1ccc(NC2(c3ccccc3)C(=O)c3ccccc3C2=O)cc1	inactive	
c1ccc(Cn2cc(CNc3ccccc3)nn2)cc1	inconclusive: 50.1 µM [inhibitor, partial curve, poor fit]	
O=C1NC(=S)S/C1=C\c1ccc(SCc2ccco2)o1	inconclusive: 63.1 µM [inhibitor, partial curve, poor fit]	
O=C(NC(=S)NCc1ccccc1)c1ccccc1	inactive	
Cc1ccc(Nc2c(-c3ccc(N4CCOCC4)cc3)nc3cccc(C)n23)cc1	inconclusive: 39.8 µM [inhibitor, partial curve, poor fit]	

Compound	Potency	activity change, negative = inhibition
COCCCn1c(=O)/c(=C\c2ccccc2OC(F)F)s/c1=C(/C#N)C(=O)N1CCOCC1	inactive	
COc1ccc(C(=O)Nc2ccc(Cl)c(S(=O)(=O)Nc3ccccc3OC)c2)cc1	inactive	
Cc1ccc(NC(=O)COC(=O)Cc2c[nH]c3ccccc23)cc1	inconclusive: 0.251 µM [inhibitor, full curve, poor fit]	
CCC(C(=O)Nc1ccc(C(C)C)cc1)n1nc(C)n2c(cc3cc(C)ccc32)c1=O (stereo unspecified)	inconclusive: 44.7 µM [inhibitor, partial curve, poor fit]	
Cc1ccc(C)c(N2CCN(C(=O)CCc3nc(-c4ccccc4Br)no3)CC2)c1	inconclusive: 50.1 µM [inhibitor, partial curve]	
COc1cc2[nH]ccc(=O)c2cc1OC	inconclusive: 0.282 µM [inhibitor, full curve, poor fit]	
CN(C)C(=S)Nc1ccc(Br)c(Cl)c1	inconclusive: 11.2 µM [inhibitor, partial curve]	
CCOc1ccc(NC(=O)Cn2cc(C(=O)c3ccc(C)cc3)c(=O)c3cc4c(cc32)OCO4)cc1	inconclusive: 50.1 µM [inhibitor, partial curve, poor fit]	
Cc1ccc(C(=O)NC(=O)OCCn2c(C)cnc2[N+](=O)[O-])cc1	inactive	
CCOC(=O)c1ccc(NC(=O)CSc2ncc(S(=O)(=O)c3ccc(C)c(Cl)c3)c(=O)[nH]2)cc1	inconclusive: 44.7 µM [inhibitor, partial curve, poor fit]	
C=CCn1c(=O)c2c(nc3n2CC(C)CN3c2cccc(OC)c2)n(C)c1=O (stereo unspecified)	inconclusive: 44.7 µM [inhibitor, single point]	
CCC1C(=O)N=C(SCC(=O)Nc2ccc(Br)cn2)NC1=O (stereo unspecified)	inactive	
CCN(C(=O)c1ccco1)c1nnc(-c2cccnc2)s1	inconclusive: 56.2 µM [inhibitor, single point]	
O=[N+]([O-])c1ccc(-[n+]2ccc3ccccc3c2)c([N+](=O)[O-])c1	inconclusive: 44.7 µM [inhibitor, partial curve]	
CCCC(=O)N1CCc2[nH]c3ccccc3c2C1	inconclusive: 44.7 µM [inhibitor, partial curve, poor fit]	
Cc1ccccc1Cn1c(C)c(CNCCCc2ccccc2)c(C(=O)O)c1C	inactive	
O=C(NCCSCc1ccccc1)c1ccc(C2SCC(=O)N2Cc2ccccc2)cc1 (stereo unspecified)	inconclusive: 39.8 µM [inhibitor, partial curve, poor fit]	
O=C(CC(c1ccccc1)c1ccccc1O)NCCc1ccccc1 (stereo unspecified)	inconclusive: 7.94 µM [inhibitor, single point]	
COc1ccc(CCNc2nc(SCc3cccc(Cl)c3)nc3ccccc23)cc1OC	inconclusive: 50.1 µM [inhibitor, partial curve, poor fit]	
Nc1c(C(=O)O)sc2nc(-c3ccccc3)cc(-c3ccccc3)c12	inconclusive: 31.6 µM [inhibitor, partial curve]	
O=C(Oc1ccc(=O)[nH]n1)c1ccccc1	inconclusive: 35.5 µM [inhibitor, partial curve]	

Compound	Potency	activity change, negative = inhibition
Cc1ccc(S(=O)(=O)N2CCc3cc(C(=O)Nc4c(C)cccc4C(C)C)ccc32)cc1	inconclusive: 0.126 µM [inhibitor, full curve, poor fit]	
CN(Cc1ccccc1)c1ncnc2sccc12	inconclusive: 2 µM [inhibitor, partial curve]	
N#CC1=C(N)Oc2cc(N)ccc2C1c1ccc(F)cc1 (stereo unspecified)	inactive	
O=C(O)COc1ccccc1/C=N/NC(=O)Cc1ccccc1	inactive	
Cc1ccccc1NC(=O)CCn1nc(-c2ccc(Cl)cc2)c2ccccc2c1=O	inactive	
Cc1ccc(C(C)C)c(OCc2nn(CC(=O)c3ccc(Cl)cc3)c3[n+]2CCCCC3)c1	inconclusive: 0.398 µM [inhibitor, full curve, poor fit]	
CCOC(=O)N1CCc2cc(OC)c(OC)c3c2c1cc1cc(OC)c(OC)cc13	inconclusive: 44.7 µM [inhibitor, partial curve, poor fit]	
CCOC(=O)c1c(NC(=O)CSc2cn(CCNC(=O)c3ccc(OCC)cc3)c3ccccc23)sc2c1CCC2	inconclusive: 0.0282 µM [inhibitor, full curve, poor fit]	
O=C(NCc1ccccc1)c1nc(-c2ccc(Cl)cc2)n2c1CCCCC2	inconclusive: 17.8 µM [inhibitor, partial curve]	
CC(=O)c1cccc(NC(=S)Nc2cccc3ccccc23)c1	inconclusive: 89.1 µM [inhibitor, partial curve, poor fit]	
CC(=O)Nc1cc([N+](=O)[O-])ccc1N1CCOCC1	inactive	
CCN(Cc1nc(-c2cccc(C)c2)no1)C(=O)c1ccco1	inconclusive: 31.6 µM [inhibitor, partial curve, poor fit]	
CC1CCCCN1CCCNc1ccc(C(CC(N)=O)NC(=O)Cc2cccc3ccccc23)cc1[N+](=O)[O-] (stereo unspecified)	inconclusive: 56.2 µM [inhibitor, partial curve, poor fit]	
CC(=O)c1ccc(NC(=S)Nc2cccc3ccccc23)cc1	inconclusive: 70.8 µM [inhibitor, partial curve, poor fit]	
O=C(O)CCCC(=O)OCc1c(-c2ccccc2)ncc2ccccc12	inconclusive: 2.51 µM [inhibitor, full curve, poor fit]	
Cc1ccc(-c2cc(NC(=O)c3cccc(C)c3)on2)cc1	inconclusive: 5.62 µM [inhibitor, single point]	
COc1ccc2c(CCNC(=O)c3ccco3)c[nH]c2c1	inactive	
CC(=O)c1ccc(NC(=O)c2ccc3nc(-c4ccco4)c(-c4ccco4)nc3c2)cc1	inconclusive: 50.1 µM [inhibitor, partial curve, poor fit]	
COc1ccc(NS(=O)(=O)c2ccc3c(c2)[C@H]2C=CC[C@H]2[C@@H](c2ccc(C(=O)O)cc2)N3)cc1	inconclusive: 39.8 µM [inhibitor, partial curve, poor fit]	

Given as a markdown table: part of the list above

| Compound | Potency | activity change, negative = inhibition |
| --- | --- | --- |
| COc1ccc(C(=O)Nc2ccc(Cl)c(S(=O)(=O)Nc3ccccc3OC)c2)cc1 | inactive |  |
| CN(C)C(=S)Nc1ccc(Br)c(Cl)c1 | inconclusive: 11.2 µM [inhibitor, partial curve] |  |
| CC1CCCCN1CCCNc1ccc(C(CC(N)=O)NC(=O)Cc2cccc3ccccc23)cc1[N+](=O)[O-] (stereo unspecified) | inconclusive: 56.2 µM [inhibitor, partial curve, poor fit] |  |
